These are yes or no findings as the source states them, for the method shown. Some binding calls cover weakened binding; strength is not graded here.
Biological target: human interleukin-23 receptor (IL23R) (human) (UniProt Q5VWK5)
Assay: SPR, scFv on human IL23R; worded comparison of on-rates; capped or uncapped not said

Chains of the proteins cited; added tags and fusions are not shown. Residues count along the entry.
UniProt Q5VWK5, residues 24-355: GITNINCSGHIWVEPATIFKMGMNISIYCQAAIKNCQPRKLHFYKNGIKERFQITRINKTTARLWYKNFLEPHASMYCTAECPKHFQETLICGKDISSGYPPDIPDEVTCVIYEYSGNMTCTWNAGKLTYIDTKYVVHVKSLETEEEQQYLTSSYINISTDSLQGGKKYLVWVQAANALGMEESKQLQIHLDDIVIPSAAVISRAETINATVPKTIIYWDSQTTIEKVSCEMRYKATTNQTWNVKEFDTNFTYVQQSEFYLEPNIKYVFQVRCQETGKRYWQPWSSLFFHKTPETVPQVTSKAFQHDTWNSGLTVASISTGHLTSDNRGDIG

| binding | Binder |
| --- | --- |
| binds | VK1/VH4 consensus λ-capped (human IL23R specific scFv) (scFv) scFv: DIQMTQSPSSLSASVGDRVTITCQASENIYSFLAWYQQKPGKAPKLLIYSASKLAAGVPSRFSGSGSGTDFTLTISSLQPEDFATYYCQQTNRYSNPDIYNVFGGGTKLTVLGGGGGSGGGGSGGGGSGGGGSQVQLQESGPGLVKPSETLSLTCTVSGIDFNSNYYMCWIRQPPGKGLEWIGCIYVGSHVNTYYANWAKGRVTISVDTSKNQFSLKLSSVTAADTAVYYCATSGSSVLYFKFWGQGTLVTVSS |
| binds | VK1/VH4 consensus (uncapped; human IL23R specific scFv) (scFv) scFv: DIQMTQSPSSLSASVGDRVTITCQASENIYSFLAWYQQKPGKAPKLLIYSASKLAAGVPSRFSGSGSGTDFTLTISSLQPEDFATYYCQQTNRYSNPDIYNVFGQGTKVEIKRGGGGSGGGGSGGGGSGGGGSQVQLQESGPGLVKPSETLSLTCTVSGIDFNSNYYMCWIRQPPGKGLEWIGCIYVGSHVNTYYANWAKGRVTISVDTSKNQFSLKLSSVTAADTAVYYCATSGSSVLYFKFWGQGTLVTVSS |

Biological target: human interleukin-23 receptor (IL23R) (human) (UniProt Q5VWK5)
Assay: SPR, scFv on human IL23R; worded comparison of off-rates; capped or uncapped not said

| binding | Binder |
| --- | --- |
| binds | VK3/VH1A consensus λ-capped (human IL23R specific scFv) (scFv) scFv: DIVLTQSPATLSLSPGERATLSCQASENIYSFLAWYQQKPGQAPRLLIYSASKLAAGVPARFSGSGSGTDFTLTISSLEPEDFAVYYCQQTNRYSNPDIYNVFGGGTKLTVLGGGGGSGGGGSGGGGSGGGGSQVQLVQSGAEVKKPGSSVKVSCKASGIDFNSNYYMCWVRQAPGQGLEWMGCIYVGSHVNTYYANWAKGRVTITADESTSTAYMELSSLRSEDTAVYYCATSGSSVLYFKFWGQGTLVTVSS |
| binds | VK3/VH1A consensus (uncapped; human IL23R specific scFv) (scFv) scFv: DIVLTQSPATLSLSPGERATLSCQASENIYSFLAWYQQKPGQAPRLLIYSASKLAAGVPARFSGSGSGTDFTLTISSLEPEDFAVYYCQQTNRYSNPDIYNVFGQGTKVEIKRGGGGSGGGGSGGGGSGGGGSQVQLVQSGAEVKKPGSSVKVSCKASGIDFNSNYYMCWVRQAPGQGLEWMGCIYVGSHVNTYYANWAKGRVTITADESTSTAYMELSSLRSEDTAVYYCATSGSSVLYFKFWGQGTLVTVSS |
| binds | VK3/VH5 consensus λ-capped (human IL23R specific scFv) (scFv) scFv: DIVLTQSPATLSLSPGERATLSCQASENIYSFLAWYQQKPGQAPRLLIYSASKLAAGVPARFSGSGSGTDFTLTISSLEPEDFAVYYCQQTNRYSNPDIYNVFGGGTKLTVLGGGGGSGGGGSGGGGSGGGGSEVQLVQSGAEVKKPGESLKISCKGSGIDFNSNYYMCWVRQMPGKGLEWMGCIYVGSHVNTYYANWAKGQVTISADKSISTAYLQWSSLKASDTAMYYCATSGSSVLYFKFWGQGTLVTVSS |
| binds | VK3/VH5 consensus (uncapped; human IL23R specific scFv) (scFv) scFv: DIVLTQSPATLSLSPGERATLSCQASENIYSFLAWYQQKPGQAPRLLIYSASKLAAGVPARFSGSGSGTDFTLTISSLEPEDFAVYYCQQTNRYSNPDIYNVFGQGTKVEIKRGGGGSGGGGSGGGGSGGGGSEVQLVQSGAEVKKPGESLKISCKGSGIDFNSNYYMCWVRQMPGKGLEWMGCIYVGSHVNTYYANWAKGQVTISADKSISTAYLQWSSLKASDTAMYYCATSGSSVLYFKFWGQGTLVTVSS |
| binds | VK1/VH3 consensus λ-capped (human IL23R specific scFv) (scFv) scFv: DIQMTQSPSSLSASVGDRVTITCQASENIYSFLAWYQQKPGKAPKLLIYSASKLAAGVPSRFSGSGSGTDFTLTISSLQPEDFATYYCQQTNRYSNPDIYNVFGGGTKLTVLGGGGGSGGGGSGGGGSGGGGSEVQLVESGGGLVQPGGSLRLSCAASGIDFNSNYYMCWVRQAPGKGLEWVSCIYVGSHVNTYYANWAKGRFTISRDNSKNTLYLQMNSLRAEDTAVYYCATSGSSVLYFKFWGQGTLVTVSS |
| binds | VK1/VH3 consensus (uncapped; human IL23R specific scFv) (scFv) scFv: DIQMTQSPSSLSASVGDRVTITCQASENIYSFLAWYQQKPGKAPKLLIYSASKLAAGVPSRFSGSGSGTDFTLTISSLQPEDFATYYCQQTNRYSNPDIYNVFGQGTKVEIKRGGGGSGGGGSGGGGSGGGGSEVQLVESGGGLVQPGGSLRLSCAASGIDFNSNYYMCWVRQAPGKGLEWVSCIYVGSHVNTYYANWAKGRFTISRDNSKNTLYLQMNSLRAEDTAVYYCATSGSSVLYFKFWGQGTLVTVSS |

Reference: US20200255533A1
